Reference: PubChem BioAssay AID1259405 (NCATS, 2018)

- Aim: 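Mouse-designed siRNAs used to find CHO productivity engineering targets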 (primary screen)
- Cells: Chinese hamster CHO-K1 ovary cells with stable secreted eGFP expression
- Knock-down reagent: single siRNA against mouse genes, 0.8 pmol siRNA per well (2 µl of 400 nM stock)
- Time to read-out: 3 days
- Measured: 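Percent of the per-plate non-targeting control median for intracellular GFP per well by laser scanning cytometry and for cell viability by ATP luminescence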
- Scale: GFP, % of control: higher = more GFP per well, higher productivity; viability (ATP), % of control: higher = more viable cells (more ATP)
- Call rule: 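Called active when intracellular GFP, relative to negative control, is at or above 120%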
In all, the deposit lists about 50,000 reagents; this is a part drawn at random. Over the whole deposit, about 4,000 (8%) are marked active. 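Mouse siRNA library applied to hamster cells; one well for each siRNA.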 Reagents against one gene are numbered here.

| gene knocked down | siRNA no. | GFP, % of control | viability (ATP), % of control | call |
| --- | --- | --- | --- | --- |
| Npc2 | 1 | 99.5 | 98.7 | inactive |
| Npc2 | 2 | 138 | 74.8 | active |
| Npc2 | 3 | 84.4 | 74.4 | inactive |
| Rars2 | 1 | 105 | 94.3 | inactive |
| Rars2 | 2 | 78.8 | 75.6 | inactive |
| Fam107a | 1 | 40.9 | 42 | inactive |
| Fam107a | 2 | 64.8 | 104 | inactive |
| Fam107a | 3 | 56.6 | 124 | inactive |
| Ldlr | 1 | 61.1 | 46.6 | inactive |
| Ldlr | 2 | 129 | 83 | active |
| Ldlr | 3 | 57.5 | 65.1 | inactive |
| Or13p8 | 1 | 84.1 | 60.2 | inactive |
| Or13p8 | 2 | 95.4 | 91.8 | inactive |
| Or13p8 | 3 | 53 | 46.3 | inactive |
| Blmh | 1 | 47 | 86.7 | inactive |
| Blmh | 2 | 69.7 | 72.2 | inactive |
| Blmh | 3 | 50.3 | 62.3 | inactive |
| Epn1 | 1 | 83.4 | 90.6 | inactive |
| Epn1 | 2 | 86.5 | 73.3 | inactive |
| Or4d5 | 1 | 19.5 | 24.5 | inactive |
| Or4d5 | 2 | 39.5 | 24.8 | inactive |
| Or4d5 | 3 | 80.5 | 47.5 | inactive |
| Derl3 | 1 | 118 | 97.8 | inactive |
| Derl3 | 2 | 68.4 | 83.4 | inactive |
| Derl3 | 3 | 64.1 | 76.5 | inactive |
| Lcn5 | 1 | 67.8 | 95.8 | inactive |
| Lcn5 | 2 | 68.8 | 59.3 | inactive |
| Lcn5 | 3 | 107 | 84.8 | inactive |
| Or12d12 | 1 | 97.5 | 73.5 | inactive |
| Or12d12 | 2 | 64.9 | 80.1 | inactive |
| Or12d12 | 3 | 127 | 65.5 | active |
| Fbxo7 | 1 | 74.1 | 72.4 | inactive |
| Fbxo7 | 2 | 72.4 | 86.7 | inactive |
| Fbxo7 | 3 | 61.3 | 36.8 | inactive |
| Chn1 | 1 | 83.9 | 49.2 | inactive |
| Chn1 | 2 | 86.6 | 89.7 | inactive |
| Chn1 | 3 | 51.7 | 49.9 | inactive |
| Snca | 1 | 170 | 129 | active |
| Snca | 2 | 90.3 | 80.5 | inactive |
| Wnt7a | 1 | 80.6 | 68.9 | inactive |
| Wnt7a | 2 | 54.5 | 49.5 | inactive |
| Wnt7a | 3 | 59.1 | 63.6 | inactive |
| Tnfsf18 | 1 | 69.5 | 61.8 | inactive |
| Tnfsf18 | 2 | 66.5 | 53.7 | inactive |
| Tnfsf18 | 3 | 60.8 | 63.7 | inactive |
| Nxph4 | 1 | 122 | 112 | active |
| Nxph4 | 2 | 80.3 | 87.8 | inactive |
| Nxph4 | 3 | 60.2 | 65.7 | inactive |
| Fndc7 | 1 | 67.2 | 83.9 | inactive |
| Fndc7 | 2 | 48.4 | 52.8 | inactive |
| Fndc7 | 3 | 62.7 | 77.9 | inactive |
| Alx4 | 1 | 99.8 | 119 | inactive |
| Alx4 | 2 | 102 | 105 | inactive |
| Alx4 | 3 | 42.6 | 58.8 | inactive |
| E130018O15Rik | 1 | 86.1 | 106 | inactive |
| E130018O15Rik | 2 | 86.5 | 73.3 | inactive |
| E130018O15Rik | 3 | 161 | 72 | active |
| Mertk | 1 | 103 | 102 | inactive |
| Twist2 | 1 | 108 | 84.4 | inactive |
| Twist2 | 2 | 109 | 95.4 | inactive |
| Twist2 | 3 | 68.4 | 73.1 | inactive |
| Skint9 | 1 | 63.8 | 52.7 | inactive |
| Skint9 | 2 | 43.5 | 52.3 | inactive |
| Skint9 | 3 | 78.2 | 97.1 | inactive |
| Fbxo21 | 1 | 82.7 | 77.2 | inactive |
| Fbxo21 | 2 | 52.4 | 53.3 | inactive |
| Fbxo21 | 3 | 52 | 58.3 | inactive |
| Homez | 1 | 80.6 | 84.4 | inactive |
| Homez | 2 | 80 | 78.9 | inactive |
| Homez | 3 | 92.2 | 101 | inactive |
| Akap12 | 1 | 90.2 | 99 | inactive |
| Akap12 | 2 | 60.1 | 56.6 | inactive |
| Gm16367 | 1 | 100 | 79.1 | inactive |
| Gm16367 | 2 | 91.1 | 95.4 | inactive |
| Gm16367 | 3 | 58.9 | 55.1 | inactive |
| Commd9 | 1 | 67.9 | 94.2 | inactive |
| Commd9 | 2 | 52.7 | 75.1 | inactive |
| Commd9 | 3 | 87.3 | 132 | inactive |
| Cd200r4 | 1 | 58.5 | 79.3 | inactive |
| Cd200r4 | 2 | 55.9 | 88.8 | inactive |
| Cd200r4 | 3 | 56.5 | 65.7 | inactive |
| Or51f1 | 1 | 89.2 | 78.9 | inactive |
| Or51f1 | 2 | 86.8 | 85.8 | inactive |
| Or51f1 | 3 | 63.7 | 103 | inactive |
